# Earlier results in patent publication US10888099B2, “Granulation of a Stevia sweetener” (PureCircle Sdn Bhd, priority 2009, dated 2021).
# At least one compound was matched to its structure with a doubt left.
# Details: cited from earlier work
smiles,measurement,value
C=C1C[C@@]23CC[C@H]4[C@@](C)(CCC[C@@]4(C)C(=O)O[C@@H]4O[C@H](CO)[C@@H](O)[C@H](O)[C@H]4O)[C@@H]2CC[C@]1(O[C@@H]1O[C@H](CO)[C@@H](O)[C@H](O)[C@H]1O[C@@H]1O[C@@H](C)[C@H](O)[C@@H](O)[C@H]1O)C3 [Dulcoside A],sweetness potency,around 30 times higher than sucrose
